Reference: patent US12780800B1, “Triazole-pyridinyl substituted azacyclohexyl acetic acid compounds as LPA receptor antagonists” (Viva Star Biosciences Limited, priority 2021, dated 2022)
The structures given here were assigned with low confidence; some may be wrong.

By UniProt entry, the sequences of proteins in these tests, tags left out.
UniProt Q92633, whole entry: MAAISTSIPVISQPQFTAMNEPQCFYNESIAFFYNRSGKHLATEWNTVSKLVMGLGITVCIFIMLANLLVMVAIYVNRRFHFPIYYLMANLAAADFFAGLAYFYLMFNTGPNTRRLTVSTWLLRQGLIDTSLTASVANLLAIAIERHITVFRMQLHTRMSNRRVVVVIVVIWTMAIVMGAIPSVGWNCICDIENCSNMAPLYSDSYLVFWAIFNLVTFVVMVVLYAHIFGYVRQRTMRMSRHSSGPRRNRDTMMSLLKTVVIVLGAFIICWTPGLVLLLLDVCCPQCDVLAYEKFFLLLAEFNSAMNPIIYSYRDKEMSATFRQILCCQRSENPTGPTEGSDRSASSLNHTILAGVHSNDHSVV

Target: LPA1 (Homo sapiens, UniProt Q92633)
Assay: LPA1 calcium flux assay (LPA1 functional antagonist assay)
Format: cell-based
Settings: read-out: LPA1 IC50; PathHunter CHO-K1 EDG2 β-Arrestin cell line; calcium indicator dye; stimulated with EC80 concentration of LPA; FLIPR Tetra

CCCc1cnc(=O)n(Cc2c(-c3ccc(N4C[C@@H](CC(=O)O)CC(F)(F)C4)c(CC)n3)nnn2C)c1
IC50: 500 to 5000 nM
